PubChem BioAssay AID493014 (National Center for Advancing Translational Sciences (NCATS), 2011)
The list shows a part of the results. Shown are side measurements of this screen, not its main read-out; they come without a call. The list favours compounds with an active or inconclusive main result. The note in brackets gives the kind of curve behind each potency; many fits are weak.

Experiment: qHTS Assay to Find Inhibitors of Chronic Active B-Cell Receptor Signaling
Settings: ABC-DLBCL IkBa-CBG/CBR reporter, luminescence ratio (green luciferase fused to IkBa over red control in TMD8 lymphoma cells), 4 h
How it was run: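 Concentration-response series (up to 46 uM) were applied to TMD8 dual-reporter cells for 4 h at 37C with doxycycline. Green/red ratio, after filter-overlap correction, defined %Activity; red signal alone was normalised to basal cells and zero luminescence.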

[1] = measured here: CBR red luminescence, cell number
[2] = measured here: IkBa-CBG green luminescence

SMILES | AC50 [1] | AC50 [2]
CCCCCCOc1ccc(OCC(O)CN2C(=O)NC(C)(C)C2=O)cc1 (stereo not given) | 29.1 µM [rising, single point] | –
COc1ccc(S(=O)(=O)Nc2ccc(S(=O)(=O)N3CCCCC3)cc2)cc1C | 35.5 µM [falling, single point] | –
O=C(NCc1ccccc1)c1cc2ccccc2o1 | 20.6 µM [falling, partial curve] | –
COc1ccc(OC)c2sc(N(Cc3cccnc3)C(=O)c3ccc(C(C)=O)cc3)nc12 | 25.1 µM [falling, single point] | –
CCC(C)NS(=O)(=O)c1ccc(OC)c(Cl)c1Cl (stereo not given) | 1.84 µM [rising, partial curve, poor fit] | –
O=C(Nc1ccc2nn(-c3ccccc3)nc2c1)c1ccc2c(c1)OCO2 | 2.31 µM [falling, partial curve, poor fit] | –
CN(CC(=O)O)Cc1nc2ccccc2[nH]1 | 6.51 µM [rising, partial curve, poor fit] | –
Cn1c(=O)c2[nH]c(-c3cccnc3)nc2n(C)c1=O | 0.316 µM [falling, full curve, poor fit] | 1 µM [rising, partial curve, poor fit]
c1ccc(CNc2nnnn2-c2ccccc2)cc1 | 6.51 µM [rising, single point] | –
CC(C)C(=O)Nc1ccc(Nc2ccccc2)cc1 | 3.66 µM [rising, partial curve] | –
O=c1c2c(-c3ccccc3)csc2ncn1/N=C/c1ccc(O)c([N+](=O)[O-])c1 | 1.26 µM [falling, full curve, poor fit] | –
COc1ccc(OC)c(C(=O)/C=C/c2cccnc2)c1 | 5.01 µM [falling, partial curve] | –
O=C(N/N=C/C(Cl)=C\c1ccccc1)c1cccs1 | 35.5 µM [falling, single point] | –
O=C1c2ccccc2C(=O)N1CCCc1nc2ccccc2c(=O)n1-c1cccnc1 | 12.6 µM [rising, partial curve, poor fit] | –
COc1cc(CN2CCN(S(=O)(=O)c3ccc(NC(C)=O)cc3)CC2)cc(OC)c1O | 15.8 µM [rising, single point] | –
O=C(O)c1ccc(CNC(=O)c2ccccc2NC(=O)c2ccc([N+](=O)[O-])cc2)cc1 | 17.8 µM [falling, partial curve, poor fit] | –
COc1ccc(S(=O)(=O)N/N=C\c2ccc(OC)c(COc3ccc(C)cc3[N+](=O)[O-])c2)cc1 | 2.91 µM [rising, partial curve, poor fit] | –
COc1cc2cc(C)nc(Cc3cccc4ccccc34)c2cc1OC | 16.4 µM [rising, single point] | –
O=C(CCc1ccccc1)OCC(=O)c1ccc([N+](=O)[O-])cc1 | 3.55 µM [rising, single point] | –
COc1ccc(C(=O)Nc2cccc(NC(=O)c3cccs3)c2)cc1OC | 12.6 µM [falling, partial curve, poor fit] | –
COc1ccc(/C=C/C(=O)c2ccc([N+](=O)[O-])o2)cc1OC | 4.11 µM [falling, partial curve, poor fit] | –

SMILES | AC50 [1] | AC50 [2]
CN1CCN(c2ccc(Cl)cc2NC(=O)CC2OC(=O)c3ccccc32)CC1 (stereo not given) | 25.9 µM [falling, single point] | –
CCc1cc2c(nc1CC)CCN(CC/C(C)=N/O[C@@H](C)c1cc(-c3c(C)cc(C)cc3C)no1)C2 | 8.2 µM [falling, partial curve] | –
COc1cc2c(cc1OC)C(c1cc3cc(OC)c(OC)cc3[nH]c1=O)N(C(=O)C1CC1)CC2 (stereo not given) | – | 11.2 µM [falling, partial curve]
O=C(NCc1cccnc1)C(=O)Nc1nc(-c2ccccc2)cs1 | 10 µM [falling, partial curve, poor fit] | –
CC(=O)Nc1nc(C)c(-c2csc(Nc3ccccn3)n2)s1 | 10 µM [falling, partial curve] | –
CCCn1nc(NC(=O)c2cccs2)c2cc3cc(OC)ccc3nc21 | 0.731 µM [falling, full curve, poor fit] | –
COc1cc2c(cc1OC)CN(CC(=O)Nc1ccc(F)cc1)C(C(=O)O)C2 (stereo not given) | 17.8 µM [falling, partial curve, poor fit] | –
O=C(CNC(=O)c1cccs1)N/N=C/c1ccc(O)cc1O | 10 µM [falling, partial curve, poor fit] | –
CN(C1CCCCC1)S(=O)(=O)c1ccc2[nH]c(=O)oc2c1 | 1.12 µM [rising, full curve, poor fit] | –
Cn1ncc(Cl)c1C(=O)N1CCN(c2ccc(F)cc2)CC1 | 28.2 µM [falling, single point] | –
Cc1ccc(CSC2=NCCN2C(=O)c2ccc([N+](=O)[O-])cc2)cc1 | – | 35.5 µM [rising, partial curve, poor fit]
COc1ccccc1CNC(=O)c1ccccc1N | 6.51 µM [falling, full curve, poor fit] | –
COC(=O)CSc1nc2ccc(C)cc2cc1C#N | 11.2 µM [falling, partial curve, poor fit] | –
COc1ccc(NC(=O)CSc2nnc(C)n2N)cc1S(=O)(=O)N1CCCCC1 | 6.51 µM [rising, single point] | –
O=c1c2c([N+](=O)[O-])cc([N+](=O)[O-])cc2sn1Cc1ccccc1 | 22.4 µM [falling, single point] | –
O=C(NCCc1cccnc1)c1cc(COc2ccc(F)cc2Cl)on1 | 35.5 µM [falling, single point] | –
O=C(Cn1nnc(-c2ccc(OCc3ccccc3F)cc2)n1)N1CCOCC1 | 0.731 µM [falling, full curve] | –
CCCCn1c(=N)n(CC(=O)c2ccc([N+](=O)[O-])cc2)c2ccccc21 | 14.1 µM [rising, single point] | –
Cc1cc(C)nc(Sc2ccc(/C=C(\C#N)C(=O)Nc3ccccc3)o2)n1 | 1.64 µM [rising, partial curve, poor fit] | –
CCC(=O)N1CCC2(CC1)Oc1ccc(F)cc1C(=O)C21CC(c2ccc(Cl)cc2)=NO1 (stereo not given) | 35.5 µM [falling, single point] | –
Cc1cc(-c2csc(NC(=O)c3cc4ccccc4o3)n2)c(C)n1C | 18.4 µM [falling, partial curve, poor fit] | –

SMILES | AC50 [1] | AC50 [2]
O=C(COc1ccc(Cl)cc1Br)Nc1ccncc1 | 3.16 µM [rising, partial curve, poor fit] | –
Cc1occc1C(=O)Nc1c(F)c(F)c(F)c(F)c1F | – | 29.1 µM [falling, single point]
Cc1nc(N2CCN(c3ccccn3)CC2)c2c(C)c(C(=O)Nc3c(F)cc(F)cc3Br)sc2n1 | 2.82 µM [falling, full curve, poor fit] | –
Cc1ccc(C2c3c(oc4ccccc4c3=O)C(=O)N2c2nncs2)cc1 (stereo not given) | 11.2 µM [rising, partial curve, poor fit] | –
O=C1C=C(/C=C/c2ccccc2)C[C@@H](c2ccc(F)cc2)C1 | 18.4 µM [rising, partial curve] | –
CCSc1nnc2c(n1)OC(c1ccc(OCC(=O)O)cc1)Nc1ccccc1-2 (stereo not given) | 11.2 µM [falling, partial curve, poor fit] | –
CC1CC(Nc2ccccc2N)=CC(=O)O1 (stereo not given) | – | 32.6 µM [rising, partial curve, poor fit]
COCCN(C(=O)CSc1nnc(-c2ccccc2OC)o1)c1c(N)n(CC(C)C)c(=O)[nH]c1=O | 32.6 µM [rising, partial curve, poor fit] | –
CC(=O)N1CCOc2ccc(S(=O)(=O)NC[C@H]3O[C@@H](n4cnc5c(N)ncnc54)[C@H](O)[C@@H]3O)cc21 | 18.4 µM [rising, partial curve, poor fit] | –
COc1ccc(C(=O)CCN2CCN(c3ccccc3F)CC2)cc1 | 35.5 µM [falling, single point] | –
COc1cccc(-c2nc(C(N)=O)c3[nH]c(=O)n(-c4ccccc4)c3n2)c1OC | 29.1 µM [rising, single point] | –
COc1cc(OC)cc(C(=O)OCC(=O)c2ccc(S(=O)(=O)N3CCCCC3)cc2)c1 | 29.1 µM [rising, partial curve, poor fit] | –
CCCC(=O)N/C(N)=N/c1nc2ccccc2o1 | 10 µM [falling, partial curve] | –
O=C(CN1C(=O)/C(=C/c2ccccc2F)Sc2ccccc21)NCc1cccnc1 | 35.5 µM [falling, single point] | –
CC1(C)CC(=O)C(CS(=O)(=O)c2ccccc2)=C(O)C1 | 22.4 µM [rising, single point] | –
COc1ccc(Cl)cc1Nc1nc(-c2sc(NC(=O)C(C)(C)C)nc2C)cs1 | 10 µM [falling, partial curve] | –
CC(=O)c1ccc(OCc2ccccc2)c(C)c1O | 16.4 µM [rising, partial curve] | –
Cc1cccc(OCC(=O)NNc2c3ccccc3nc3ccccc23)c1 | 35.5 µM [falling, single point] | –
Oc1c(CN2CCN(c3ccccc3)CC2)cc(Br)c2cccnc12 | 3.16 µM [rising, single point] | 3.16 µM [falling, partial curve, poor fit]
COC(=O)c1ccc(NC(=O)CSc2nn3c(=O)c(C)nnc3s2)cc1 | 12.6 µM [falling, partial curve, poor fit] | 2.82 µM [rising, partial curve, poor fit]

Quoted from the listing:
`CC1CC(Nc2ccccc2N)=CC(=O)O1` (stereo not given) – AC50 [2]: 32.6 µM [rising, partial curve, poor fit]
`CCCC(=O)N/C(N)=N/c1nc2ccccc2o1` – AC50 [1]: 10 µM [falling, partial curve]
